Measured values from the supplement of paper PMC11732987, “Enantioselective OTUD7B fragment discovery through chemoproteomics screening and high-throughput optimisation” (Communications Chemistry, 2025).
The list shows a part of the results. The data scatter; read single values as rough.

Amino acid sequences for entries named in this document (tags omitted). A change or cut given only in a name is not applied to a line headed by its entry.
UniProt Q9NVH6: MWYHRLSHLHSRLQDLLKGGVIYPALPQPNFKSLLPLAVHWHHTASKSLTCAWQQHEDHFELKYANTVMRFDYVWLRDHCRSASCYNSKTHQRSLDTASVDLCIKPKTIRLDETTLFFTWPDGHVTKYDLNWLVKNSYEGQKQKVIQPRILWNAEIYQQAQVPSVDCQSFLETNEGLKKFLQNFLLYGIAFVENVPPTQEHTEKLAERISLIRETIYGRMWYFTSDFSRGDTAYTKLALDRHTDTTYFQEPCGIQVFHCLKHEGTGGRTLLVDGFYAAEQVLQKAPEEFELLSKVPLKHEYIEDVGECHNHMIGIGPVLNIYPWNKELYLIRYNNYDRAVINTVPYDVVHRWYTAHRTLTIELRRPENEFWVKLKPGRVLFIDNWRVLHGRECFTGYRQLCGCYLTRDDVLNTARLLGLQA
UniProt Q8WVT3: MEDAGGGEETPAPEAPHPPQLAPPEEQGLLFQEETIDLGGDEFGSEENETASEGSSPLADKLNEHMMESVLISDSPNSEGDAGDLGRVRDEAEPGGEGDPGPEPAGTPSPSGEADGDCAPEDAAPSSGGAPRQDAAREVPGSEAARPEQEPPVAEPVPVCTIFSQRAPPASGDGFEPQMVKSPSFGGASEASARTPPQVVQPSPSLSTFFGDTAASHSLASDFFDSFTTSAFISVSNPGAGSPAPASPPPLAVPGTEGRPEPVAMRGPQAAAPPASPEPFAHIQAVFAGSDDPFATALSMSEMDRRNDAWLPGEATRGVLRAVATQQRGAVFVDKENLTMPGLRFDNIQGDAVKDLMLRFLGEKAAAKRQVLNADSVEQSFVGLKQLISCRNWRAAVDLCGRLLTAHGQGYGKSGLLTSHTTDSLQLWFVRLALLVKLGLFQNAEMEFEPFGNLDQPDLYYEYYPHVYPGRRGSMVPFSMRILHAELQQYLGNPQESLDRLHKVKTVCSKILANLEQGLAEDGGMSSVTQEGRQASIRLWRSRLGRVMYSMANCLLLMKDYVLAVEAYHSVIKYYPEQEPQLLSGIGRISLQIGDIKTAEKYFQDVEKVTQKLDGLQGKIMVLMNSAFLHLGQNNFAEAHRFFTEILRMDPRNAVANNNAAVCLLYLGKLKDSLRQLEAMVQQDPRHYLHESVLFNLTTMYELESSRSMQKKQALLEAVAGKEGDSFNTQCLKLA
UniProt Q9C0C2: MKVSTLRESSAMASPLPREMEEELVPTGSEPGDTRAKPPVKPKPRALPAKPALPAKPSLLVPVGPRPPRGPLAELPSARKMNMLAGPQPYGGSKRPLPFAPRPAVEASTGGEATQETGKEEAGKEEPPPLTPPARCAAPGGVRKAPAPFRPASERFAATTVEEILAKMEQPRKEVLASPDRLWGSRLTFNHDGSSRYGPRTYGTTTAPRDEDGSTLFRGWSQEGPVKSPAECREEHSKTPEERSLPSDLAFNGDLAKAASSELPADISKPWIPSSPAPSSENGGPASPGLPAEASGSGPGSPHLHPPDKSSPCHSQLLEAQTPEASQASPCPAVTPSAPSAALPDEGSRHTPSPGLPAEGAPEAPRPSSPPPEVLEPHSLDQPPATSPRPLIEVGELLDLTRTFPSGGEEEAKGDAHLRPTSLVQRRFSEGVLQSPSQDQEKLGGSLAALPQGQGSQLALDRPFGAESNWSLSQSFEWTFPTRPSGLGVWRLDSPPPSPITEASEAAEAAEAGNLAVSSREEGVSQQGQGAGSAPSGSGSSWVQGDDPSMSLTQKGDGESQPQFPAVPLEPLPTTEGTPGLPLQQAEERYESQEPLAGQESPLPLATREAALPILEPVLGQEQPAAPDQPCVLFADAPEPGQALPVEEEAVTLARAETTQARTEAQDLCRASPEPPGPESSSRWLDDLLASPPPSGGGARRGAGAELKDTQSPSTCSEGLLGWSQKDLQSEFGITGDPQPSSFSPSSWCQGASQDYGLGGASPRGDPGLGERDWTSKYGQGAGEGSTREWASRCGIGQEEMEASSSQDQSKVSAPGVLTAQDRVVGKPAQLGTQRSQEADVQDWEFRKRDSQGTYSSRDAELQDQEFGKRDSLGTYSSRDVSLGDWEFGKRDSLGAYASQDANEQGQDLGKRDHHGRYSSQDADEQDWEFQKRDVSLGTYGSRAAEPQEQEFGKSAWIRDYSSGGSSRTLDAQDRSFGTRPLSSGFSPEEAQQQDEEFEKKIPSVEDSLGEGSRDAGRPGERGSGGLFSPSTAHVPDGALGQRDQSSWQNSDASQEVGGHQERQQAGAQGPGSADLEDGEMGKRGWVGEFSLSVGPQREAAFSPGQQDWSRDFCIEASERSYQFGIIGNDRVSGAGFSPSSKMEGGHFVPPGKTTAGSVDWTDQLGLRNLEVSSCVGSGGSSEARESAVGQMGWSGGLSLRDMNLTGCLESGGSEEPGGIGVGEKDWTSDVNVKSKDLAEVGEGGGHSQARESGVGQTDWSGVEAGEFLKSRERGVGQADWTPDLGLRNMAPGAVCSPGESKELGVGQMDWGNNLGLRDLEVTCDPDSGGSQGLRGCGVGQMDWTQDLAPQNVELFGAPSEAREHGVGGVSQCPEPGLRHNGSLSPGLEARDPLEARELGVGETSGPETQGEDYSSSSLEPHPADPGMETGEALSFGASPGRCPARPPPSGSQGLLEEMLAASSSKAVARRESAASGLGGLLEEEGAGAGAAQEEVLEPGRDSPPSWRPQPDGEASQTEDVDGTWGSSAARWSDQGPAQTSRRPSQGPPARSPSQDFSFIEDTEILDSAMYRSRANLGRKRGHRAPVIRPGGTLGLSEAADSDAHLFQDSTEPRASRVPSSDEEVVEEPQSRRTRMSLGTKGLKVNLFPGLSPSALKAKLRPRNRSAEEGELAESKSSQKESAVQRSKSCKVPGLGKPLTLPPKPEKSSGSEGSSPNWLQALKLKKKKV
UniProt Q9HD45: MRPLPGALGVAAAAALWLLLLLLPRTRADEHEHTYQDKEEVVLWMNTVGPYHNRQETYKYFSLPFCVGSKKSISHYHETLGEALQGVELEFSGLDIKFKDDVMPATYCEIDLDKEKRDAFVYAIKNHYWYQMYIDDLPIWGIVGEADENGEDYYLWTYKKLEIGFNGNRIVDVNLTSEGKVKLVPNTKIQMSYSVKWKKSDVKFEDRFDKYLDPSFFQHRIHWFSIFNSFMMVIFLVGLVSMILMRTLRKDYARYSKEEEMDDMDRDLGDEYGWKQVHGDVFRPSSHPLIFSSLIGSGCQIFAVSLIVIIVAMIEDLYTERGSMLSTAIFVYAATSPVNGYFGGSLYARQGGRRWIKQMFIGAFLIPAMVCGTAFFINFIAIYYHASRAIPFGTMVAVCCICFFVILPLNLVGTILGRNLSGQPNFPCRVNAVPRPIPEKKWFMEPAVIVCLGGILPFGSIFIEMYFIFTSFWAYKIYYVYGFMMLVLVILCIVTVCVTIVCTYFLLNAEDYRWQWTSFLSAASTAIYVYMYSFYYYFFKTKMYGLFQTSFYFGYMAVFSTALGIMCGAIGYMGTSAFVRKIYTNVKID
UniProt Q9Y490: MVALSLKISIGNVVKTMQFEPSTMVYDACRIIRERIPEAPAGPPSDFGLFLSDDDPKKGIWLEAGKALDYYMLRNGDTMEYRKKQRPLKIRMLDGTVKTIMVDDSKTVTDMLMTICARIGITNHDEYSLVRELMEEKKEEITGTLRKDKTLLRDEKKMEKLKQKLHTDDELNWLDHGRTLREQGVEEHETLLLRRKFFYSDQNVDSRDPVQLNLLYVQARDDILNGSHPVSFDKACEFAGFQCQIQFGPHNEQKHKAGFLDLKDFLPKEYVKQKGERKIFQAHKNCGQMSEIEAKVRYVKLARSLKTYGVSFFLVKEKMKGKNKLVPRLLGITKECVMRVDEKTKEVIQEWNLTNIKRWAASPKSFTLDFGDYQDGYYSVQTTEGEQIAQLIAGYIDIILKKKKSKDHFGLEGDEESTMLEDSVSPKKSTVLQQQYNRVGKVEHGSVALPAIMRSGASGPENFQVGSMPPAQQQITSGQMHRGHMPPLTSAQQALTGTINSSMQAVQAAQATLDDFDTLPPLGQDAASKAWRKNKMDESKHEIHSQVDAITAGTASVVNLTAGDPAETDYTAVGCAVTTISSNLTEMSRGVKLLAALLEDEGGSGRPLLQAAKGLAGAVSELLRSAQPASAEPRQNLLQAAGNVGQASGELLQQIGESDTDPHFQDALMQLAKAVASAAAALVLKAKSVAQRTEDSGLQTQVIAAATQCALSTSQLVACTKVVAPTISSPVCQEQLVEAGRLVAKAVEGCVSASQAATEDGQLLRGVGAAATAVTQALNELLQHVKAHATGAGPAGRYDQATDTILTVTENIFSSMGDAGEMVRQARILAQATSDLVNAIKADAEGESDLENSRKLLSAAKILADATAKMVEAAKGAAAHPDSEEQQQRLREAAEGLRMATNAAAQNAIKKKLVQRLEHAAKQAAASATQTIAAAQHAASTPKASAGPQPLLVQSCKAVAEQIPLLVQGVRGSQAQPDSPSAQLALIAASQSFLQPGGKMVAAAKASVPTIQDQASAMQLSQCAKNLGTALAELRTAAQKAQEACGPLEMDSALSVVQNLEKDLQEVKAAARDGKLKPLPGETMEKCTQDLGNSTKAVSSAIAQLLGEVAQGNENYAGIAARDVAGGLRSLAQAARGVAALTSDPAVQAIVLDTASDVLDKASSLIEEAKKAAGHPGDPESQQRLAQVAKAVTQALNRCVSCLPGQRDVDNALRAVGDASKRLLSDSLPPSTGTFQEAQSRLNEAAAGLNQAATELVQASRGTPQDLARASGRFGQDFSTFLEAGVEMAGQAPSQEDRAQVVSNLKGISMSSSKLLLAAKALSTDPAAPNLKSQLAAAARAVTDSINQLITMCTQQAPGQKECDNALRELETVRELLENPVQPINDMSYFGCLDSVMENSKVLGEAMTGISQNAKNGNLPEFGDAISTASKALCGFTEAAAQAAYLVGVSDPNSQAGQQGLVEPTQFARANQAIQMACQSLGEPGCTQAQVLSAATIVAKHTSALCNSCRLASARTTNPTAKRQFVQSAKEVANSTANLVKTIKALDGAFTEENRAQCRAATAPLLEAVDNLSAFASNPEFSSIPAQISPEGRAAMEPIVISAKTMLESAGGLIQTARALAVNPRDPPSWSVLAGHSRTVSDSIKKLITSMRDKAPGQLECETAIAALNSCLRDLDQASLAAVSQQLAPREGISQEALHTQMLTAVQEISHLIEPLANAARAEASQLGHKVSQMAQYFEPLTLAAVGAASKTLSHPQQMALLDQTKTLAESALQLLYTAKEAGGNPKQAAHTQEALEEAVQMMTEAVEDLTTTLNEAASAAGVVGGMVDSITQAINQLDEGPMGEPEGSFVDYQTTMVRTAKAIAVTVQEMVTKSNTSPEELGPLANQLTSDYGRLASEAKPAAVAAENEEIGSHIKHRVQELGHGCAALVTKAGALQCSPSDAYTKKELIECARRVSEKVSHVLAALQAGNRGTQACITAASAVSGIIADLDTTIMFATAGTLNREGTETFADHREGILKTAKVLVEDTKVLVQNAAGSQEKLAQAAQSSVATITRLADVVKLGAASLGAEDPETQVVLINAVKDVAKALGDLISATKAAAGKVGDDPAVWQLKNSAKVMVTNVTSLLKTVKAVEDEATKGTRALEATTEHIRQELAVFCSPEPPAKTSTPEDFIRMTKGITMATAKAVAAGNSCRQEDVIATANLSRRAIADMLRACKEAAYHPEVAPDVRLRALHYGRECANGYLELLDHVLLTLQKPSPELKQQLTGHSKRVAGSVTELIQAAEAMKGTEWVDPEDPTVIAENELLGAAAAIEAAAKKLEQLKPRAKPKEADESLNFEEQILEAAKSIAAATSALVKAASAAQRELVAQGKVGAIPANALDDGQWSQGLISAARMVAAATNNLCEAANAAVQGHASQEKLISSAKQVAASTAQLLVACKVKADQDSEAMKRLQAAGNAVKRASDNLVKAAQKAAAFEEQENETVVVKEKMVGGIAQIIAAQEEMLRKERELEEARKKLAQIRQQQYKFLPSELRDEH

Assays:
[1] = compound: ClCC(=O)N[C@@H]1CCCc2ccccc12; assay: log2 mean competition ratio of IA-DTB cysteine labelling (DMSO/compound) (log2 ratio); higher = stronger cysteine engagement by compound; details: treatment time: 4 h, cell line lysate: HEK293T
Procedure: (§1)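 IA-DTB competitive cysteine chemoproteomics in HEK293T RIPA lysate. Lysates were treated with compound 29 or 30 at 50 or 200 µM for 4 h, then IA-DTB (500 µM, 1 h), trypsin-digested, NeutrAvidin-enriched and analysed by diaPASEF. Competition ratio = intensity DMSO / intensity compound (n=4 treated, n=64 DMSO); binding: mean log2 CR ≥ 1 and p ≤ 0.05 plus QC filters. Target is the cysteine site.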

[2] = compound: ClCC(=O)N[C@H]1CCCc2ccccc12; assay: as above; details: treatment time: 4 h, cell line lysate: HEK293T
Procedure: as §1

Target	log2 mean competition ratio ([1]; 50 µM)	log2 mean competition ratio ([1]; 200 µM)	log2 mean competition ratio ([2]; 50 µM)	log2 mean competition ratio ([2]; 200 µM)
TMLHE C85 (UniProt Q9NVH6)	-0.0372	0.317	-0.0265	-0.015
TRAPPC12 C731 (UniProt Q8WVT3)	-0.086	0.0183	-0.27	0.0631
TNKS1BP1 C1114 (UniProt Q9C0C2)	0.0903	-0.0388	0.224	0.1
TM9SF3 C428 (UniProt Q9HD45)	0.129	0.276	0.327	0.339
TLN1 C286 (UniProt Q9Y490)	-0.00166	-0.136	-0.444	-0.206
